According to PubChem BioAssay AID2685 (National Center for Advancing Translational Sciences (NCATS), 2010):
Screen size: about 320,000 compounds; about 2,100 (0.66%) were called active. Inconclusive results, whose numbers are uncertain, are shown with a selection of clear calls. The call rests on the fitted dose curve; in most records, active means well fitted inhibition curve with a large enough effect in the signal ratio, with a control signal flat (not every such curve was filed as active); inconclusive means small, poorly fitted or top-dose-only effect, or effect the other way, or a change in a side signal; inactive means flat fitted curve, though single readings scatter; the % refers to the signal ratio. A potency beside an inconclusive call is a rough fit, not a confirmed value.

Assay: qHTS Assay for Lipid Storage Modulators in Drosophila S3 Cells
Conditions: BODIPY lipid droplet fluorescence, 18-24 h, cells fed with added oleic acid; lipid storage change, negative = inhibition: at 46.1 µM (top of the series) unless noted
Summary of the method: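 Laser-scanning cytometry quantifies lipid droplet accumulation (500–530 nm total intensity; droplet/cell object ratio) in oleic acid-fed (400 uM added) Drosophila S3 cells treated with a concentration series. 20 uM Triacsin C defined 100% inhibition.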
On the % scale 0 is the no-effect control and ±100 the full control effect; potency means the concentration at half of the fitted maximal effect.

Structure (SMILES) | Potency | lipid storage change, negative = inhibition | outcome
COc1ccc(NC(=O)CN(C)C(=O)c2cc3c(s2)CCCCC3)cc1 | inconclusive: 14.6 µM [activator, partial curve] | – | –
CC(=O)Nc1ccc(S(=O)(=O)N(C)CC(=O)Nc2ccccc2N2CCOCC2)cc1 | – | inconclusive: 8.17% | –
COc1ccc(Cc2nnc(NC(=O)c3c(-c4ccccc4)noc3C)s2)cc1 | – | inconclusive: 139% | –
Cc1nc2cc(Nc3ccncc3)ccc2s1 | – | inconclusive: 5.34% | –
Cc1cc(C)n(-c2nc3c(c(=O)[nH]c(=O)n3C)n2CC(O)COc2ccccc2C)n1 (stereo not drawn) | inconclusive: 29.1 µM [cytotoxic, single point] | – | –
COC(=O)c1cccc(NS(=O)(=O)c2ccc(OC)c(C(=O)N3CCOCC3)c2)c1C | – | inconclusive: -100% | –
O=C(CSc1nnc2scc(-c3ccccc3)n12)c1ccc2c(c1)OCCO2 | – | inconclusive: -4.94% | –
COc1ccc(OC)c(/C=C/C(=O)N2CCN(S(=O)(=O)c3ccc(C)cc3C)CC2)c1 | – | inconclusive: -17.9% | –
COc1ccc(N(CC(=O)Nc2cccc(SC)c2)S(C)(=O)=O)cc1 | inconclusive: 0.146 µM [falling, full curve] | – | –
CCCCOc1cccc(NC(=O)CSc2nncn2C)c1 | – | inconclusive: 17.1% | –
O=C(c1ccco1)N1CCN(C(=O)c2cc3c(=O)oc4ccccc4c3s2)CC1 | – | inconclusive: 14.6% | –
COc1cccc(CN2CCN(C3CCN(c4cccc(C)c4C)CC3)CC2CCO)c1 (stereo not drawn) | – | inconclusive: -9.42% | –
COc1ccc(N2CC(C(=O)Nc3nnc(SCC(=O)NC4CCCC4)s3)CC2=O)cc1 (stereo not drawn) | – | inconclusive: 40.4% | –
O=c1[nH]cnc2onc(-c3ccc(F)cc3)c12 | – | inconclusive: -11.4% | –
COc1cccc2sc(N(CCCN(C)C)C(=O)c3ccc(S(=O)(=O)N4CCCc5ccccc54)cc3)nc12 | – | inconclusive: 5.74% | –
Cc1nn(Cc2ccccc2)c(C)c1NC(=O)c1cc(-c2ccc3c(c2)OCO3)on1 | – | inconclusive: 28% | –
Cc1ccccc1/C=N/n1c(COc2ccccc2)n[nH]c1=S | – | inactive: 13.7% | –
CCCCOc1ccc(C2NC(=O)NC(C)=C2C(C)=O)cc1OCC (stereo not drawn) | – | inconclusive: -44.7% [cytotoxic] [at 0.369 µM] | –
CN(C(=O)c1ccc(NC(=O)Cc2ccc(NC(=O)C3CCN(C(=O)C4CCC4)CC3)cc2)cc1)C1CC1 | inconclusive: 25.9 µM [falling, single point] | – | –
O=C(Nc1nc(-c2ccccc2)cs1)c1ccc(=O)[nH]c1 | – | inconclusive: 39.2% | –
COc1cc(NC(=O)C2CC2)c(OC)cc1NC(=O)c1ccco1 | – | inconclusive: 10.9% | –
COc1ccc(-n2c(SCC(=O)NCC3CCCO3)nc3ccccc32)cc1 (stereo not drawn) | – | inconclusive: -3.61% | –
CC1(C)C(=O)C2(CCCCC2)C(=O)OC1c1cccc([N+](=O)[O-])c1 (stereo not drawn) | – | inconclusive: -10% | –
CC1CCN(C(=O)CSc2nc3c(c(=O)n2C)SCC3)CC1 | – | inconclusive: 2.85% | –
COC(=O)NCc1ccc(CNC(=O)OC)cc1 | – | inconclusive: 13.1% | –
O=C(Nc1ccccc1N1CCN(C(=O)c2ccccc2)CC1)c1ccc(Cl)cc1 | – | inconclusive: -5.41% | –

3 entries picked at random from those above, as already listed:
Structure (SMILES) | Potency | lipid storage change, negative = inhibition | outcome
COc1ccc(OC)c(/C=C/C(=O)N2CCN(S(=O)(=O)c3ccc(C)cc3C)CC2)c1 | – | inconclusive: -17.9% | –
COC(=O)NCc1ccc(CNC(=O)OC)cc1 | – | inconclusive: 13.1% | –
O=C(CSc1nnc2scc(-c3ccccc3)n12)c1ccc2c(c1)OCCO2 | – | inconclusive: -4.94% | –

(listing goes on)

Structure (SMILES) | Potency | lipid storage change, negative = inhibition | outcome
FC(F)(F)c1cccc(N2CCN(C(=S)NC3CCCC3)CC2)c1 | – | inconclusive: 51.9% | –
Cc1cccc(OCCn2c(S(=O)(=O)O)nc3ccccc32)c1 | – | inconclusive: -57.7% | –
Cc1cc(C(=O)CSc2cccc[n+]2[O-])c(C)n1-c1ccc(Br)cc1 | – | inconclusive: -17.5% | –
Cc1ccc(-c2nc(CS(=O)(=O)CC(=O)NC3CC3)c(C)o2)cc1 | – | inconclusive: -13.1% | –
Cc1onc(-c2ccccc2Cl)c1C(=O)NCc1nc(-c2ccccc2)no1 | inconclusive: 0.164 µM [activator, full curve, poor fit] | – | –
COc1ccccc1COC(=O)c1cccc(S(=O)(=O)N2CCCC2)c1 | – | inconclusive | –
CC(=O)Nc1ccc(CN2CCN(C3CCCCC3)C(CCO)C2)cc1 (stereo not drawn) | – | inconclusive: -2.9% | –
CCOc1c([N+](=O)[O-])cc2c(C)c(C(=O)N3CCN(C)CC3)oc2c1OCC | – | inactive: 15.5% | –
COCCCNC(=O)CC(NS(=O)(=O)c1ccc(Cl)cc1)c1ccco1 (stereo not drawn) | active: 32.6 µM | – | –
Cc1oc(-c2ccccc2)nc1CS(=O)CC(=O)O (stereo not drawn) | inconclusive: 6.51 µM [falling, single point] | – | –
CC1(C)O[C@@H]2C[C@H]3[C@@H]4C[C@H](F)C5=CC(=O)CC[C@]5(C)[C@H]4[C@@H](O)C[C@]3(C)[C@]2(C(=O)CO)O1 | – | inconclusive: -17% | –
COC(=O)c1sccc1N/N=C/c1cccc(Oc2ccccc2)c1 | – | inactive: 10.2% | –
Cc1ccc(C23CC4CC(CC(C(N)=O)(C4)C2)C3)cc1 | – | inconclusive: -32.1% | –
COCC1CCN(C(=O)C2CCC(=O)N(C3CCCC3)C2)CC1 (stereo not drawn) | – | inconclusive: -11.5% | –
COC(=O)[C@@H](NC(=O)O[C@H]1C(=O)c2ccc(OC)cc2O[C@@H]1c1ccc2c(c1)OCO2)C(C)C | – | inconclusive: 1.57% | –
O=C(NNc1ccccc1[N+](=O)[O-])Nc1ccc(Cl)c(Cl)c1 | – | inconclusive: -86.3% | –
Cc1ccc(OCc2nnc(N)s2)cc1 | – | inconclusive: 30.5% | –
OC(COc1ccc2c(c1)CCC2)CN1CCN(c2ccccc2F)CC1 (stereo not drawn) | inconclusive: 29.1 µM [falling, single point] | – | –
O=C(CN1CCN(S(=O)(=O)N2CCCCC2)CC1)Nc1ccc(Br)cc1 | inconclusive: 1.16 µM [falling, partial curve, poor fit] | – | –
C/C=C(/C)C(=O)Nc1cccc(C2=NOC3(C2)C[C@@H](C(N)=O)N(C(=O)c2ccc(OC)cc2)C3)c1 (stereo partly drawn) | – | inconclusive: 10.5% | –
COCCC(=O)N1CCCC(CCC(=O)NCc2ccc(F)c(F)c2)C1 (stereo not drawn) | inconclusive: 0.0046 µM [falling, full curve, poor fit] | – | –
O=C(c1ccccn1)N1CCCC(N2CCN(c3cccc(C(F)(F)F)c3)CC2)C1 (stereo not drawn) | inconclusive: 0.58 µM [falling, single point] | – | –
Clc1cccc(Cl)c1C[n+]1ccc2ccccc2c1 | – | inconclusive: -78.6% | –
Cc1nc2cccnc2nc1C | – | inconclusive: -2.25% | –
Cc1ccc(-n2nnnc2SCC(=O)Nc2sccc2C#N)cc1 | – | inconclusive: -6.11% | –
c1cnc2nc(CSc3ncn[nH]3)cn2c1 | – | inconclusive: -39.8% | –

Structure (SMILES) | Potency | lipid storage change, negative = inhibition | outcome
CCn1cc(C(=O)NN)c(=O)c2cc(F)c(N3CCCCC3)cc21 | – | inconclusive: 101% | –
COc1cccc(NC(=O)CN(C)C(=O)CCNC(=O)c2ccccc2Cl)c1 | inconclusive: 6.51 µM [activator, partial curve, poor fit] | – | –
Cc1cc(NC(=O)c2ccc3c(c2)C(=O)N(C2CCCCC2)C3=O)no1 | – | inconclusive: -3.43% | –
CCOc1ccccc1NC(=O)C(OC(=O)c1cc(C)oc1C)c1ccccc1 (stereo not drawn) | – | inconclusive: 24.5% | –
O=C(NCc1nc(-c2ccc(Cl)cc2)no1)c1ccco1 | – | inconclusive: 49.1% | –
Cc1cccc(OCCCn2c(CO)nc3ccccc32)c1 | inconclusive: 0.92 µM [activator, full curve, poor fit] | – | –
CCCCOC(=O)c1ccc(NC(=O)CSCc2n[nH]c(=O)[nH]2)cc1 | – | inconclusive: 9.63% | –
COc1ccccc1C(=O)Nc1ccnn1C1CCN(C(=O)c2cnsn2)CC1 | inconclusive: 29.1 µM [falling, single point] | – | –
CN1c2ccccc2-c2nc3ccccc3n2C1c1ccco1 (stereo not drawn) | – | inconclusive: -43.6% | –
CC(C)COc1ncnc2c1sc1nc3c(cc12)COC(C)(C)C3 | – | inconclusive: -8.68% | –
O=C1c2cccc3cccc(c23)C(=O)N1CCCSc1ncn[nH]1 | – | inconclusive: 28.5% | –
CCN(c1ccccc1)S(=O)(=O)c1cc(C(=O)Nc2ccc(Br)cc2)ccc1F | inconclusive: 8.2 µM [activator, partial curve] | – | –
Cc1ccc(C2(C)NC(=O)N(CC(=O)N(Cc3ccccc3)C(C)(C)C)C2=O)cc1 (stereo not drawn) | inconclusive: 1.46 µM [activator, partial curve] | – | –
O=C(CSc1nnnn1-c1ccc(F)cc1)Nc1ccc(N2CCOCC2)c(Cl)c1 | – | inconclusive: 73.9% | –
COc1ccccc1NC(=O)Oc1ccc(NC(=O)c2ccco2)cc1 | – | inconclusive: -26.3% | –
Cc1cc(-c2ccc(NC(=O)[C@@H]3CCCC[C@@H]3C(=O)O)c(C)c2)ccc1NC(=O)[C@@H]1CCCC[C@@H]1C(=O)O | – | inconclusive: 111% | –
CCC1CCCCN1C(=O)CSc1nnc2nc(C)cc(C)n12 (stereo not drawn) | – | inconclusive: -15.2% | –
CCn1c(SCC(=O)Nc2ccc(C(C)=O)cc2)nnc1C1CC1 | – | – | inactive [at 46.1 µM]
COCc1nnc(NC(=O)c2c(-c3c(Cl)cccc3Cl)noc2C)s1 | – | inconclusive: -19.3% | –
CN(c1ccccc1)S(=O)(=O)c1cccc(NC(=O)CN2C(=O)NC3(CCCC3)C2=O)c1 | – | inconclusive | –
COc1cccc(NC(=O)CN(C)C(=O)c2ccc3c(c2)CC(c2ccccc2)OC3=O)c1 (stereo not drawn) | – | inconclusive: 14.8% | –
CN1C(=O)N(C)C2(c3ccccc3)N(C)C(=O)NC12c1ccccc1 (stereo not drawn) | inconclusive: 20.6 µM [falling, partial curve] | – | –
CC(=O)c1n[nH]nc1NC(=O)c1ccccc1 | inconclusive: 0.184 µM [activator, partial curve] | – | –
CC(C)CC(=O)Nc1ccc2c3c(cccc13)CC2 | – | inconclusive: 5.77% | –
COc1cccc(OC)c1C(=O)Nn1c(-c2cccc(C)c2)nc2ccccc2c1=O | – | inconclusive: 11.3% | –
O=[N+]([O-])c1cccc(-c2nc(-c3cccs3)c(-c3cccs3)[nH]2)c1 | – | inconclusive: -17.4% | –

Reformatted as labelled records: part of the list above.
COc1cccc(OC)c1C(=O)Nn1c(-c2cccc(C)c2)nc2ccccc2c1=O
  lipid storage change, negative = inhibition: inconclusive: 11.3%
O=[N+]([O-])c1cccc(-c2nc(-c3cccs3)c(-c3cccs3)[nH]2)c1
  lipid storage change, negative = inhibition: inconclusive: -17.4%
